Measurements published in PubChem BioAssay AID330 (DTP/NCI, 2004).
The list does not hold the whole screen: it is rich in T/C values a quarter to a half above the control, in often repeated tests (any T/C) and in doses without a T/C. Further doses and runs are listed elsewhere. T/C gives the treated animals as a percentage of the vehicle group. Some doses have a count of surviving animals in place of a T/C: the source files T/C as zero there, which appears to mark a toxic dose or a test without result, not a measured value. Some survivor counts are full or nearly so, which does not show that the dose was tolerated: the source hardly ever lists a survival T/C far under the control, and the zero likely stands for such cases as well. Counts of survivors are from the toxicity check (mostly the fifth day) where no day follows; animals may have died later. Schedule codes are those of the source, read here as Q, the interval in days (D) or hours (H), X, the number of doses. Some entries were tested several times; the results are listed from low to high. Where survival is the endpoint, this PubChem deposit counts one and a half times the control or more as active, and values a quarter to a half above the control carry no call in these data; other NCI protocols may use other cut-offs. Some T/C values carry the count of animals alive at the toxicity check (mostly the fifth day); where none is given, no animal had died by that day.

System: P388 leukemia ip, CD2F1 mice, survival T/C
Test: NCI In Vivo Anticancer Drug Screen. Data for tumor model P388 Leukemia (intraperitoneal) in CD2F1 (CDF1) mice
Details: T/C endpoint: median survival time, higher T/C = longer survival
[1] = dose: 25.0 mg/kg/injection, schedule: Q01DX009 (ip), vehicle: saline with Tween-80
[2] = dose: 50.0 mg/kg/injection, schedule: Q01DX005 (ip), vehicle: saline with Tween-80
[3] = dose: 200.0 mg/kg/injection, schedule: Q01DX005 (ip), vehicle: saline with Tween-80
[4] = dose: 200.0 mg/kg/injection, schedule: Q01DX005 (ip), vehicle: saline
[5] = dose: 240.0 mg/kg/injection, schedule: Q01DX005 (ip), vehicle: saline with Tween-80
[6] = dose: 100.0 mg/kg/injection, schedule: Q01DX005 (ip), vehicle: saline with Tween-80
[7] = dose: 200.0 mg/kg/injection, schedule: Q01DX009 (ip), vehicle: saline
[8] = dose: 400.0 mg/kg/injection, schedule: Q04DX003 (ip), vehicle: saline with Tween-80

Question: With `Nc1ccc(S(N)(=O)=O)cc1` as the compound, how does the T/C [1] read?
Answer: Its T/C is 102, 105, 107, 109 % of control.

Question: And the T/C (dose: 50.0 mg/kg/injection, schedule: Q01DX009 (ip), vehicle: saline with Tween-80)?
Answer: The T/C was 94, 101, 102 [5 of 6 alive], 105 % of control.

Question: What about the T/C (dose: 100.0 mg/kg/injection, schedule: Q01DX009 (ip), vehicle: saline with Tween-80) of the same compound?
Answer: The T/C was 96, 98, 102, 115 % of control.

Question: For `NC(=S)c1nn(C2OC(CO)C(O)C2O)c2ncnc(N)c12` (stereo not given), which T/C (dose: 1.9 mg/kg/injection, schedule: Q01DX009 (ip), vehicle: saline) is on record?
Answer: The T/C was 135 % of control.

Question: What about the T/C (dose: 3.0 mg/kg/injection, schedule: Q01DX009 (ip), vehicle: saline) of the same compound?
Answer: The T/C was 136 % of control.

Question: What about the T/C (dose: 4.5 mg/kg/injection, schedule: Q01DX009 (ip), vehicle: saline) of the same compound?
Answer: Its T/C is 137 % of control.

Question: With `C=CC(C)(C)c1cc2cc3c(cc2oc1=O)OC1(C)CCC(C(C)(C)O)OC1C3` (stereo not given) as the compound, how does the survivor count [2] read?
Answer: Its survivor count is 6 of 6.

Question: And the survivor count [3]?
Answer: The survivor count was 0 of 6.

Question: For `CCCCOC(=O)N[C@H]1CCc2cc(OC)c(OC)c(OC)c2-c2ccc(SC)c(=O)cc21`, which T/C (dose: 1.5 mg/kg/injection, schedule: Q01DX009 (ip), vehicle: Klucel (hydroxypropylcellulose) (HPC)) is on record?
Answer: Its T/C is 125 % of control.

Question: And the T/C (dose: 3.0 mg/kg/injection, schedule: Q01DX009 (ip), vehicle: Klucel (hydroxypropylcellulose) (HPC))?
Answer: The T/C was 126 and 142 % of control.

Question: And the T/C (dose: 6.0 mg/kg/injection, schedule: Q01DX009 (ip), vehicle: Klucel (hydroxypropylcellulose) (HPC))?
Answer: The T/C was 134 % of control.

Question: `Cc1ccc2c(N(C)C)cc(N(C)C)nc2c1C` was tested. Which survivor count (dose: 200.0 mg/kg/injection, schedule: Q01DX009 (ip), vehicle: Klucel (hydroxypropylcellulose) (HPC)) did it give?
Answer: The survivor count was 0 of 6.

Question: `Nc1cccc(CC(=O)Nc2ccccc2)c1` was tested. Which survivor count (dose: 400.0 mg/kg/injection, schedule: Q04DX002 (ip), vehicle: Klucel (hydroxypropylcellulose) (HPC)) did it give?
Answer: Its survivor count is 1 of 6.

Question: With `CCOc1nnc(-c2ccc(OC)c(OC)c2)o1` as the compound, how does the survivor count (dose: 25.0 mg/kg/injection, schedule: Q01DX009 (ip), vehicle: other) read?
Answer: Its survivor count is 6 of 6.

Question: And the survivor count (dose: 50.0 mg/kg/injection, schedule: Q01DX009 (ip), vehicle: other)?
Answer: Its survivor count is 6 of 6.

Question: For `CCCN(CCC)c1ncnc2[nH]ncc12`, which survivor count [4] is on record?
Answer: The survivor count was 4 of 5.

Question: `O=C(NC(Cc1ccc(Br)cc1)C(=O)O)c1cccc(Cl)c1` (stereo not given) was tested. Which survivor count [4] did it give?
Answer: Its survivor count is 1 of 6.

Question: With `Cc1ccc2cccc(C(=O)N(C)C)c2[n+]1C` as the compound, how does the survivor count (dose: 0.62 mg/kg/injection, schedule: Q04DX002 (ip), vehicle: saline) read?
Answer: Its survivor count is 0 of 6.

Question: And the survivor count (dose: 1.25 mg/kg/injection, schedule: Q04DX002 (ip), vehicle: saline)?
Answer: Its survivor count is 0 of 6.

Question: And the survivor count (dose: 2.5 mg/kg/injection, schedule: Q04DX002 (ip), vehicle: saline)?
Answer: Its survivor count is 0 of 6.

Question: And the survivor count (dose: 12.5 mg/kg/injection, schedule: Q04DX002 (ip), vehicle: saline)?
Answer: Its survivor count is 0 of 6.

Question: What about the survivor count (dose: 25.0 mg/kg/injection, schedule: Q04DX002 (ip), vehicle: saline) of the same compound?
Answer: Its survivor count is 0 of 6.

Question: And the survivor count (dose: 50.0 mg/kg/injection, schedule: Q04DX002 (ip), vehicle: saline)?
Answer: The survivor count was 0 of 6.

Question: What about the survivor count (dose: 125.0 micrograms/kg/injection, schedule: Q04DX002 (ip), vehicle: saline) of the same compound?
Answer: The survivor count was 3 of 6.

Question: With `O=Cc1c[nH]c2ccc(NC(=O)OCc3ccccc3)cc12` as the compound, how does the survivor count (dose: 200.0 mg/kg/injection, schedule: Q01DX009 (ip), vehicle: saline with Tween-80) read?
Answer: The survivor count was 6 of 6.

Question: Which survivor count [5] does the source give for `CCOC(=O)C1C(O)CC2c3ccccc3-c3ccccc3C21` (stereo not given) here?
Answer: Its survivor count is 6 of 6.

Question: Which results are given for `CC1c2ccccc2CC(CCN(C)C)c2ccccc21` (stereo not given)?
Answer: T/C (dose: 25.0 mg/kg/injection, schedule: Q01DX005 (ip), vehicle: saline with Tween-80): 125 % of control; T/C [2]: 127 % of control [5 of 6 alive]; survivor count [2]: 0 of 6; survivor count [6]: 0 of 5; survivor count [3]: 0 of 5

Question: How did the survivor count [6] turn out when `CN(C)c1ccc2c(c1)C(=O)N(OS(C)(=O)=O)C2=O` was run?
Answer: Its survivor count is 6 of 6.

Question: And the survivor count [3]?
Answer: Its survivor count is 0 of 6.

Question: What does the source list for `O=C(NCc1ccccc1)OCc1c(COC(=O)NCc2ccccc2)c(-c2ccc(Cl)c(Cl)c2)n2c1CCC2`?
Answer: T/C (dose: 6.25 mg/kg/injection, schedule: Q01DX009 (ip), vehicle: distilled water + Tween-80): 148 % of control; survivor count (dose: 200.0 mg/kg/injection, schedule: Q01DX009 (ip), vehicle: distilled water + Tween-80): 3 of 6 and 6 of 6

Question: With `CC(C)CC(NC(=O)C(Cc1ccccc1)NC(=O)OCc1ccccc1)C(=O)O` (stereo not given) as the compound, how does the survivor count [3] read?
Answer: Its survivor count is 5 of 6.

Question: Which survivor count (dose: 50.0 mg/kg/injection, schedule: Q01DX005 (ip), vehicle: other) does the source give for `COc1cc2c(cc1OC)CN1CCCC1C2` (stereo not given) here?
Answer: Its survivor count is 2 of 6.

Question: And the survivor count (dose: 100.0 mg/kg/injection, schedule: Q01DX005 (ip), vehicle: other)?
Answer: Its survivor count is 0 of 6.

Question: What about the survivor count (dose: 200.0 mg/kg/injection, schedule: Q01DX005 (ip), vehicle: other) of the same compound?
Answer: Its survivor count is 0 of 6.

Question: Which survivor count (dose: 50.0 mg/kg/injection, schedule: Q04DX003 (ip), vehicle: saline) does the source give for `CC1(C)N=C(N)N=C(N)N1c1cccc(CCCCc2ccc(S(=O)(=O)F)cc2)c1` here?
Answer: Its survivor count is 6 of 6.

Question: What about the survivor count (dose: 100.0 mg/kg/injection, schedule: Q04DX003 (ip), vehicle: saline) of the same compound?
Answer: Its survivor count is 5 of 6.

Question: `Clc1cc2[nH]ccc2c(Cl)n1` was tested. Which survivor count (dose: 200.0 mg/kg/injection, schedule: Q01DX001 (ip), vehicle: saline with Tween-80) did it give?
Answer: Its survivor count is 0 of 6.

Question: Which results are given for `CCOc1ccc2c(c1)/C(=C\C=C\C1CC(C)C3CC(OCC)CCC3N1CC)CC(C)N2CC` (stereo not given)?
Answer: T/C (dose: 2.5 mg/kg/injection, schedule: Q01DX009 (ip), vehicle: saline + alcohol): 127 % of control; T/C (dose: 5.0 mg/kg/injection, schedule: Q01DX009 (ip), vehicle: saline + alcohol): 137 % of control

Question: With `NCCC(=O)OC1CCCc2c(O)c3c(c(O)c21)C(=O)c1ccccc1C3=O` (stereo not given) as the compound, how does the survivor count (dose: 100.0 mg/kg/injection, schedule: Q01DX009 (ip), vehicle: water) read?
Answer: Its survivor count is 3 of 6.

Question: `Cn1/c2cc/c1=C(\c1ccc(S(=O)(=O)O)cc1)c1ccc([n-]1)/C(c1ccc(S(=O)(=O)O)cc1)=c1/cc/c([nH]1)=C(\c1ccc(S(=O)(=O)O)cc1)c1ccc([n-]1)/C=2c1ccc(S(=O)(=O)O)cc1.O.O=S(=O)(O)C(F)(F)F.[Cu+2]` was tested. Which survivor count [7] did it give?
Answer: Its survivor count is 1 of 6.

Question: How did the survivor count (dose: 200.0 mg/kg/injection, schedule: Q01DX005 (ip), vehicle: Klucel (hydroxypropylcellulose) (HPC)) turn out when `COc1c(OC)c([N+](=O)[O-])c2c(c1[N+](=O)[O-])COC2=O` was run?
Answer: The survivor count was 0 of 6.

Question: What does the source list for `NC(=O)c1ccc2c(=O)c(C(=O)O)c[nH]c2c1`?
Answer: survivor count (dose: 50.0 mg/kg/injection, schedule: Q01DX009 (ip), vehicle: saline): 6 of 6; survivor count (dose: 100.0 mg/kg/injection, schedule: Q01DX009 (ip), vehicle: saline): 0 of 6; survivor count [7]: 0 of 6

Question: `COCC(=O)Oc1ccc[nH]c1=O` was tested. Which survivor count (dose: 400.0 mg/kg/injection, schedule: Q01DX009 (ip), vehicle: saline) did it give?
Answer: The survivor count was 0 of 6 and 2 of 6.

Question: How did the survivor count [5] turn out when `O=C(O)C1CCCCC1c1c2ccc(=O)c(O)c-2oc2c(O)c(O)ccc12` (stereo not given) was run?
Answer: Its survivor count is 1 of 6.

Question: Which results are given for `S=P(NCCNP(=S)(N1CC1)N1CC1)(N1CC1)N1CC1`?
Answer: T/C (dose: 12.5 mg/kg/injection, schedule: Q01DX009 (ip), vehicle: saline with Tween-80): 133 % of control; T/C [1]: 137 % of control; survivor count (dose: 100.0 mg/kg/injection, schedule: Q04DX003 (ip), vehicle: saline with Tween-80): 6 of 6; survivor count (dose: 200.0 mg/kg/injection, schedule: Q04DX003 (ip), vehicle: saline with Tween-80): 5 of 6; survivor count [8]: 3 of 6

Question: With `C1=CC(Cc2ccccc2)NC1` (stereo not given) as the compound, how does the survivor count (dose: 400.0 mg/kg/injection, schedule: Q01DX001 (ip), vehicle: distilled water + alcohol) read?
Answer: The survivor count was 3 of 6.

Question: For `C[C@]12CC[C@@H]3c4ccc(OC(=O)Cc5ccc(N(CCCl)CCCl)cc5)cc4CC[C@H]3[C@@H]1CC[C@@H]2OC(=O)Cc1ccc(N(CCCl)CCCl)cc1`, which T/C [8] is on record?
Answer: Its T/C is 137 % of control.

Question: How did the survivor count [7] turn out when `CCN(CC)CCOC(=O)c1ccc(N)cc1` was run?
Answer: Its survivor count is 0 of 6.

Question: Which results are given for `CNCCCCc1cc(-c2ccc([N+](=O)[O-])cc2)n[nH]1`?
Answer: T/C (dose: 200.0 mg/kg/injection, schedule: Q04DX003 (ip), vehicle: Klucel (hydroxypropylcellulose) (HPC)): 126 % of control [5 of 6 alive]; survivor count (dose: 400.0 mg/kg/injection, schedule: Q04DX003 (ip), vehicle: Klucel (hydroxypropylcellulose) (HPC)): 1 of 6

Question: With `CC(Cc1ccccc1)N(C)C1=C(CCC#N)CC(C(C)(C)C)CC1` (stereo not given) as the compound, how does the survivor count [4] read?
Answer: Its survivor count is 5 of 6.

Question: What does the source list for `CC(C)c1cc(C(=O)O)c(O)c(C(C)C)c1.CC(C)c1cc(C(=O)O)c(O)c(C(C)C)c1.[Mn]`?
Answer: T/C (dose: 120.0 mg/kg/injection, schedule: Q01DX005 (ip), vehicle: Klucel (hydroxypropylcellulose) (HPC)): 127 % of control; survivor count (dose: 240.0 mg/kg/injection, schedule: Q01DX005 (ip), vehicle: Klucel (hydroxypropylcellulose) (HPC)): 0 of 6
